In patent US20060052288A1 (priority 2001, published 2006) one finds step yield data, which are given here for one substance.

The data set is described as follows: general procedure: solution-phase peptide synthesis; EDC hydrochloride/HOBT/DMAP. To be noted: late stage modification step.

In turn, “(1S,9S)-1-(glycyl-glycyl-L-phenyl-alanyl-glycylamino)-9-ethyl-5-fluoro-2,3-dihydro-9-hydroxy-4-methyl-1H,12H-benzo[de]pyrano[3′,4′:6,7] indolizino[1,2-b]quinoline-10,13(9H,15H)-dione” returned a step yield of 86%.
